Laboratory results from US11414436B2, “Non-coordinating anion type activators containing cation having large alkyl groups” (ExxonMobil Chemical Patents Inc., priority 2018, dated 2022).
“And” between values parts separate entries of the source, which are not always exact repeats. Equal entries are not always repeated.

Legend:
[1] = Rapid GPC of polymer product (Mw, Mn, PDI); conditions: for Mn (g/mol) / Mw (g/mol): polypropylene, MCN-1, 85° C.; for Average Mn / Average Mw / Average Mz / Average Mw/Mn: ethylene-octene copolymer, Cat 1 (MCN-1)
[2] = RUN B: ethylene-octene polymerization in parallel pressure reactor, activator diluent toluene or methylcyclohexane; conditions: polymer weight, ethylene-octene copolymerization, Cat 1 (MCN-1)
Method: RUN B: Polymerization in Parallel Pressure Reactor.
A series of ethylene-octene polymerizations were performed in the parallel pressure reactor according to the procedure described above. […] In a typical experiment an automated syringe was used to introduce into the reactor the following reagents, if utilized, in the following order: isohexane (0.35 mL), an isohexane solution of TNOAL scavenger (0.005 M, 60 μL), additional isohexane (0.35 mL), a toluene solution of the respective polymerization catalyst (150 μL, 0.4 mM, 20 nm [cat]/100 μL [toluene]), additional isohexane (0.35 mL), a toluene or methylcyclohexane solution of the respective activator (150 μL, 0.4 mM, (20 nm [act]/100 μL[ diluent])), then additional isohexane so that the total solvent volume for each run was 5 mL. Catalyst and activator were used in a 1:1 ratio. Each reaction was performed at a specified temperature range between 50 and 120° C., typically 95° C., while applying about 100 psig of ethylene (monomer) gas. Each reaction was allowed to run for about 1 hour (˜3600 seconds) or until approximately 20 psig of ethylene gas uptake was observed, at which point the reactions were quenched with air (˜300 psig). When sufficient polymer yield was attained (e.g., at least ˜10 mg), the polyethylene product was analyzed by Rapid GPC, described below.
In a typical experiment, the anilinium borate activators were combined with toluene or methylcyclohexane as diluent and introduced to the parallel, pressure reactor via syringe. By this mechanism of activator introduction, only well dissolved activators could be delivered to the reactor providing a means to discriminate between the polymerization performance of long chain soluble anilinium borates vs. conventional anilinium borates. Following addition of activator, the catalyst Cat 1 was introduced, via syringe as well-dissolved toluene solution and the polymerization was conducted per the methodology described above.

[3] = FT-IR of polymer product (wt % octene / ethylene); conditions: ethylene-octene copolymer, Cat 1 (MCN-1)
[4] = Activator Equiv 1.0, TNOAL 0.25 umol
[5] = Activator Equiv 1.0, TNOAL 0.50 umol
[6] = Activator Equiv 1.0, TNOAL 0.75 umol
[7] = Activator Equiv 1.2, TNOAL 0.25 umol
[8] = Activator Equiv 1.2, TNOAL 0.50 umol
[9] = Activator Equiv 1.2, TNOAL 0.75 umol
[10] = Activator Equiv 1.4, TNOAL 0.25 umol
[11] = Activator Equiv 1.4, TNOAL 0.50 umol
[12] = Activator Equiv 1.4, TNOAL 0.75 umol
[13] = Activator Equiv 1.6, TNOAL 0.25 umol
[14] = Activator Equiv 1.6, TNOAL 0.50 umol
[15] = Activator Equiv 1.6, TNOAL 0.75 umol
[16] = activator diluent MeCy (methylcyclohexane)
[17] = activator diluent Toluene, listed as C2
[18] = activator diluent Toluene, listed as C1

## CCCCCCCCCCCCCCCCCC[NH+](CCCCCCCCCCCCCCCCCC)c1ccc(C)cc1.Fc1c(F)c(F)c2c(F)c([B-](c3c(F)c(F)c4c(F)c(F)c(F)c(F)c4c3F)(c3c(F)c(F)c4c(F)c(F)c(F)c(F)c4c3F)c3c(F)c(F)c4c(F)c(F)c(F)c(F)c4c3F)c(F)c(F)c2c1F [DOdTH-BF28, 4-methyl-N,N-dioctadecylbenzenaminium-BF28]
[1]; [4]
  Mn (g/mol): 83,444 g/mol and 87,492 g/mol and 103,537 g/mol
  Mw (g/mol): 188,839 g/mol and 154,334 g/mol and 173,588 g/mol
[1]; [5]
  Mn (g/mol): 110,353 g/mol and 114,822 g/mol and 119,524 g/mol
  Mw (g/mol): 190,969 g/mol and 196,386 g/mol and 208,080 g/mol
[1]; [6]
  Mn (g/mol): 143,333 g/mol and 121,586 g/mol and 126,136 g/mol
  Mw (g/mol): 226,642 g/mol and 211,247 g/mol and 230,616 g/mol
[1]; [7]
  Mn (g/mol): 95,218 g/mol and 104,639 g/mol and 109,235 g/mol
  Mw (g/mol): 176,664 g/mol and 187,424 g/mol and 174,900 g/mol
[1]; [8]
  Mn (g/mol): 94,722 g/mol and 108,882 g/mol and 107,193 g/mol
  Mw (g/mol): 173,395 g/mol and 195,598 g/mol and 200,253 g/mol
[1]; [9]
  Mn (g/mol): 118,996 g/mol and 112,323 g/mol and 114,309 g/mol
  Mw (g/mol): 203,343 g/mol and 210,208 g/mol and 206,059 g/mol
[1]; [10]
  Mn (g/mol): 98,035 g/mol and 94,337 g/mol and 107,426 g/mol
  Mw (g/mol): 167,636 g/mol and 174,709 g/mol and 191,143 g/mol
[1]; [11]
  Mn (g/mol): 123,022 g/mol and 95,683 g/mol and 125,870 g/mol
  Mw (g/mol): 196,454 g/mol and 174,763 g/mol and 205,013 g/mol
[1]; [12]
  Mn (g/mol): 127,814 g/mol and 117,540 g/mol and 122,219 g/mol
  Mw (g/mol): 214,283 g/mol and 224,513 g/mol and 206,568 g/mol
[1]; [13]
  Mn (g/mol): 101,216 g/mol and 89,708 g/mol
  Mw (g/mol): 168,522 g/mol and 169,691 g/mol
[1]; [14]
  Mn (g/mol): 108,279 g/mol and 118,888 g/mol and 131,023 g/mol
  Mw (g/mol): 183,663 g/mol and 206,818 g/mol and 205,178 g/mol
[1]; [15]
  Mn (g/mol): 107,663 g/mol and 126,310 g/mol and 126,062 g/mol
  Mw (g/mol): 188,187 g/mol and 213,453 g/mol and 213,401 g/mol

## N,N-dimethylanilinium tetrakis(heptafluoronaphthalen-2-yl)borate [DMAH-BF28, reference compound]
[2]; [16]
  Weights: 0 g
[2]; [17]
  Weights: 0.076 g and 0.08 g and 0.083 g and 0.078 g
[1]; [17]
  Average Mn: 249183 g/mol and 207640 g/mol and 225367 g/mol and 252497 g/mol
  Average Mw: 461835 g/mol and 433633 g/mol and 449360 g/mol and 456293 g/mol
  Average Mz: 1140095 g/mol and 1123865 g/mol and 1096197 g/mol and 996515 g/mol
[1]; [4]
  Mn (g/mol): 68,378 g/mol and 80,712 g/mol
  Mw (g/mol): 139,625 g/mol and 152,003 g/mol
[1]; [5]
  Mn (g/mol): 100,295 g/mol and 102,408 g/mol
  Mw (g/mol): 176,336 g/mol and 192,634 g/mol
[1]; [6]
  Mn (g/mol): 124,675 g/mol and 125,425 g/mol
  Mw (g/mol): 197,124 g/mol and 222,459 g/mol
[1]; [7]
  Mn (g/mol): 67,691 g/mol and 65,705 g/mol
  Mw (g/mol): 134,516 g/mol and 158,859 g/mol
[1]; [8]
  Mn (g/mol): 84,581 g/mol and 84,798 g/mol
  Mw (g/mol): 148,426 g/mol and 155,759 g/mol
[1]; [9]
  Mn (g/mol): 110,164 g/mol and 100,660 g/mol
  Mw (g/mol): 185,475 g/mol and 181,659 g/mol
[1]; [10]
  Mn (g/mol): 70,008 g/mol and 66,816 g/mol
  Mw (g/mol): 139,249 g/mol and 145,757 g/mol
[1]; [11]
  Mn (g/mol): 71,584 g/mol and 80,613 g/mol
  Mw (g/mol): 136,225 g/mol and 152,797 g/mol
[1]; [12]
  Mn (g/mol): 92,645 g/mol and 113,934 g/mol
  Mw (g/mol): 157,862 g/mol and 192,254 g/mol
[1]; [13]
  Mn (g/mol): 59,107 g/mol
  Mw (g/mol): 125,607 g/mol
[1]; [14]
  Mn (g/mol): 88,755 g/mol and 83,513 g/mol
  Mw (g/mol): 157,116 g/mol and 166,442 g/mol
[1]; [15]
  Mn (g/mol): 90,031 g/mol and 106,799 g/mol
  Mw (g/mol): 161,904 g/mol and 167,856 g/mol
[3]; [16]
  mol % 1-octene: 0.0 mol %
[3]; [17]
  mol % 1-octene: 7.4 mol % and 8.7 mol % and 9.1 mol % and 9.5 mol %
  wt % 1-octene: 24 wt % and 28 wt % and 29 wt % and 30 wt %

## CCCCCCCCCCCCCCCCCC[NH+](C)c1ccc(CCCC)cc1.Fc1c(F)c(F)c2c(F)c([B-](c3c(F)c(F)c4c(F)c(F)c(F)c(F)c4c3F)(c3c(F)c(F)c4c(F)c(F)c(F)c(F)c4c3F)c3c(F)c(F)c4c(F)c(F)c(F)c(F)c4c3F)c(F)c(F)c2c1F [LCSA 1]
[2]; [16]
  Weights: 0.073 g and 0.077 g and 0.082 g
[2]; activator diluent Toluene
  Weights: 0.082 g and 0.08 g and 0.086 g and 0.085 g
[3]; [16]
  mol % 1-octene: 8.9 mol % and 10.7 mol % and 9.8 mol % and 9.9 mol %
  wt % 1-octene: 28 wt % and 32 wt % and 30 wt % and 31 wt %
[3]; activator diluent Toluene
  mol % 1-octene: 9.4 mol % and 9.5 mol % and 9.1 mol % and 10.3 mol %
  wt % 1-octene: 29 wt % and 30 wt % and 31 wt %

## CCCCCCCCCCCCCCCCCCc1ccc([NH+](CCCCCCCCCCCCCCCCCC)CCCCCCCCCCCCCCCCCC)cc1.Fc1c(F)c(F)c2c(F)c([B-](c3c(F)c(F)c4c(F)c(F)c(F)c(F)c4c3F)(c3c(F)c(F)c4c(F)c(F)c(F)c(F)c4c3F)c3c(F)c(F)c4c(F)c(F)c(F)c(F)c4c3F)c(F)c(F)c2c1F [LCSA 3]
[2]; [16]
  Weights: 0.077 g and 0.076 g and 0.08 g
[2]; activator diluent Toluene
  Weights: 0.077 g and 0.078 g and 0.075 g
[1]; [16]
  Average Mn: 268267 g/mol and 240403 g/mol and 250558 g/mol and 275944 g/mol
  Average Mw: 480296 g/mol and 464198 g/mol and 476571 g/mol and 503106 g/mol
  Average Mw/Mn: 1.8 and 1.9
  Average Mz: 1201763 g/mol and 1148933 g/mol and 1140387 g/mol and 1151742 g/mol
[1]; activator diluent Toluene
  Average Mn: 262066 g/mol and 257358 g/mol and 239953 g/mol and 273074 g/mol
  Average Mw: 472959 g/mol and 492586 g/mol and 458672 g/mol and 503018 g/mol
  Average Mw/Mn: 1.8 and 1.9
  Average Mz: 1118519 g/mol and 1230830 g/mol and 1105198 g/mol and 1214488 g/mol
[3]; [16]
  mol % 1-octene: 9.8 mol % and 8.4 mol % and 9.4 mol % and 9.0 mol %
  wt % 1-octene: 30 wt % and 27 wt % and 29 wt % and 28 wt %
[3]; activator diluent Toluene
  mol % 1-octene: 10.8 mol % and 9.2 mol % and 10.2 mol % and 9.1 mol %
  wt % 1-octene: 33 wt % and 29 wt % and 31 wt %

## N,N-Dimethylanilinium tetrakis(pentafluorophenyl)borate [DMAH-BF20, reference compound]
[2]; [18]
  Weights: 0.09 g and 0.087 g and 0.093 g
[1]; [18]
  Average Mn: 101493 g/mol and 104035 g/mol and 101561 g/mol and 98530 g/mol
  Average Mw: 227087 g/mol and 226021 g/mol and 220280 g/mol and 224056 g/mol
  Average Mz: 676006 g/mol and 634408 g/mol and 708241 g/mol and 641515 g/mol
[3]; [16]
  mol % 1-octene: 0.0 mol %
[3]; [18]
  mol % 1-octene: 10.0 mol % and 9.5 mol % and 8.8 mol % and 9.1 mol %
  wt % 1-octene: 31 wt % and 30 wt % and 28 wt % and 29 wt %

## CCCCCCCCCCCCCCCCCCc1ccc([NH+](C)CCCCCCCCCCCCCCCCCC)cc1.Fc1c(F)c(F)c2c(F)c([B-](c3c(F)c(F)c4c(F)c(F)c(F)c(F)c4c3F)(c3c(F)c(F)c4c(F)c(F)c(F)c(F)c4c3F)c3c(F)c(F)c4c(F)c(F)c(F)c(F)c4c3F)c(F)c(F)c2c1F [LCSA 2]
[2]; [16]
  Weights: 0.082 g and 0.079 g and 0.085 g and 0.083 g
[2]; activator diluent Toluene
  Weights: 0.082 g and 0.08 g and 0.083 g
[1]; [16]
  Average Mn: 247443 g/mol and 208306 g/mol and 228204 g/mol and 220570 g/mol
  Average Mw: 467956 g/mol and 398860 g/mol and 432196 g/mol and 416185 g/mol
  Average Mw/Mn: 1.9
  Average Mz: 1216060 g/mol and 882745 g/mol and 1015931 g/mol and 967860 g/mol
[1]; activator diluent Toluene
  Average Mn: 230389 g/mol and 211253 g/mol and 194469 g/mol and 215969 g/mol
  Average Mw: 425784 g/mol and 440430 g/mol and 392292 g/mol and 444320 g/mol
  Average Mw/Mn: 1.8 and 2.1 and 2.0
  Average Mz: 1007444 g/mol and 1206377 g/mol and 948798 g/mol and 1166464 g/mol
[3]; [16]
  mol % 1-octene: 9.9 mol % and 9.8 mol % and 10.0 mol % and 9.6 mol %
  wt % 1-octene: 31 wt % and 30 wt %
[3]; activator diluent Toluene
  mol % 1-octene: 11.2 mol % and 8.7 mol % and 10.6 mol % and 9.4 mol %
  wt % 1-octene: 34 wt % and 27 wt % and 32 wt % and 29 wt %
